{"source": "paper PMC10329019", "about": "“Membrane translocation process revealed by in situ structures of type II secretion system secretins” (Nature Communications, 2023)", "binders": {"B1": {"name": "GspDβ secretin (ETEC H10407 strain) with hexahistidine tag, from pBAD-gspDβ-his, in ΔgspS cells (protein, UniProt E3PJ86 41-686)", "chain": "EEATFTANFKDTDLKSFIETVGANLNKTIIMGPGVQGKVSIRTMTPLNERQYYQLFLNLLEAQGYAVVPMENDVLKVVKSSAAKVEPLPLVGEGSDNYAGDEMVTKVVPVRNVSVRELAPILRQMIDSAGSGNVVNYDPSNVIMLTGRASVVERLTEVIQRVDHAGNRTEEVIPLDNASASEIARVLESLTKNSGENQPATLKSQIVADERTNSVIVSGDPATRDKMRRLIRRLDSEMERSGNSQVFYLKYSKAEDLVDVLKQVSGTLTAAKEEAEGTVGSGREIVSIAASKHSNALIVTAPQDIMQSLQSVIEQLDIRRAQVHVEALIVEVAEGSNINFGVQWASKDAGLMQFANGTQIPIGTLGAAISQAKPQKGSTVISENGATTINPDTNGDLSTLAQLLSGFSGTAVGVVKGDWMALVQAVKNDSSSNVLSTPSITTLDNQEAFFMVGQDVPVLTGSTVGSNNSNPFNTVERKKVGIMLKVTPQINEGNAVQMVIEQEVSKVEGQTSLDVVFGERKLKTTVLANDGELIVLGGLMDDQAGESVAKVPLLGDIPLIGNLFKSTADKKEKRNLMVFIRPTILRDGMAADGVSQRKYNYMRAEQIYRDEQGLSLMPHTAQPVLPAQNQALPPEVRAFLNAGRTR"}}, "target": "GspDβ secretin (ETEC H10407 strain) with hexahistidine tag, from pBAD-gspDβ-his, in ΔgspS cells (Enterotoxigenic E. coli (ETEC) H10407 strain) (UniProt E3PJ86)", "experiment": "cryo-EM structure; in situ cryo-ET subtomogram averaging of GspDβ particles on the inner membrane of ΔgspS E. coli minicells; 370 particles, C15 symmetry imposed, 14 Å", "note": "These are yes or no findings as the source states them, for the method shown. Some binding calls cover weakened binding; strength is not graded here. Where a sequence is shown, tags or fusion partners need not be part of it.", "data": [{"binder": "B1", "values": [{"measurement": "binding", "result": "binds"}]}]}
